Data reported in PMC9042968.
No constants are given. Whether binding was seen depends on the method and setting. In cells and extracts the contact can be indirect. Some binding calls cover weakened binding; strength is not graded here.

By UniProt entry, the sequences of proteins in these tests, tags left out. Residues count along the entry.
UniProt Q13586, residues 23-685: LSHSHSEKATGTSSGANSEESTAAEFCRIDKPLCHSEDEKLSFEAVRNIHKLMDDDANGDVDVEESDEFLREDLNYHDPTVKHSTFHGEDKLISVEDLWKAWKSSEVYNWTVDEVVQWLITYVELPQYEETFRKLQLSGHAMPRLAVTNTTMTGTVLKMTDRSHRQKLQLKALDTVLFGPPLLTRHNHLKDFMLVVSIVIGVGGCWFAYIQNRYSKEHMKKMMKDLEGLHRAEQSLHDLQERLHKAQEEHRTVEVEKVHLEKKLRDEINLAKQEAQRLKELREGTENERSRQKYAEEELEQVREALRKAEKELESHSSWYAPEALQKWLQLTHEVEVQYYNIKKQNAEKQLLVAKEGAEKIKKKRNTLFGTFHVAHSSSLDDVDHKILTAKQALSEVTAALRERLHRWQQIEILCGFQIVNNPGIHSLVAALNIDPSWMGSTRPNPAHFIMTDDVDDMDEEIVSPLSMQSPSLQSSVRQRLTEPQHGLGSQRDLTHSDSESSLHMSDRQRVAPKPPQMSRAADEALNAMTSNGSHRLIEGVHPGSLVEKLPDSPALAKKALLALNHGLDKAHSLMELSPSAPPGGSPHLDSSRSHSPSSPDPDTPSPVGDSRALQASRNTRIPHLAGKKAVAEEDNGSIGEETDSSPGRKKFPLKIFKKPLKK

Target: PKC-γ, full length, FLAG-tagged (UniProt P05129)
Experiment: co-IP; HEK293 cells co-transfected with myc-Stim1 and flag-tagged PKC-β or PKC-γ; lysis buffer with 1% NP 40 and protease cocktail; PKC precipitated, Stim1 detected

“stromal interaction molecule 1 (Stim1), 3xmyc-tagged (from UniProt Q13586-1 23-685)” was tested, and the binding was “binds”.
